PubChem BioAssay AID743454 – Peter MacCallum Cancer Centre | 2014
This is one part, drawn at random, of about 18,000 reagents tested. 450 of them (2.5%) count as active. 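Single biological run; no consistent viability z cut-off exists, so the class columns, not z-scores, define the calls.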 Reagents against one gene are numbered here.

Assay: 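Genes whose loss kills vorinostat-resistant colon cancer cells under vorinostat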 (primary screen)
Cell system: human HCT116-VR colon cancer cells, selected for vorinostat resistance
Knock-down reagent: siRNA pool against human genes, 40 nM siRNA pool
Time to read-out: vorinostat for 24 h, read-out about 72 h after transfection
Conditions: vorinostat at 2.5 µM final
Measurement: 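Two measures, CellTiter-Fluor viability and luminescent caspase 3/7 activity, each as fold change against same-plate mock wells, mean of duplicates, then screen-wide robust z-score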
Scale: viability robust z-score: higher = more viable cells than screen typical; caspase robust z-score: higher = more caspase 3/7 activity than screen typical
Rule for the call: 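Hits are knock-downs in viability class RV1/RV2 or caspase class CA1/CA2, excluding ones that killed cells in the no-drug cell-count arm; hits then retested with single siRNAs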

gene	reagent	viability hit class	caspase hit class	viability robust z-score	caspase robust z-score	Outcome
TTC29 (tetratricopeptide repeat domain 29)	1	no change	no change	-0.72	-0.21	inactive
MMP9 (matrix metallopeptidase 9)	1	no change	no change	0.72	0.62	inactive
RNF150 (ring finger protein 150)	1	no change	no change	-0.08	-0.69	inactive
NDUFAF7 (NADH:ubiquinone oxidoreductase complex assembly factor 7)	1	no change	no change	-1.18	-1.12	inactive
NFKBIB (NFKB inhibitor beta)	1	no change	no change	0.35	1.54	inactive
CSPP1 (centrosome and spindle pole associated protein 1)	1	no change	no change	0.63	-0.88	inactive
OR8G2P (olfactory receptor family 8 subfamily G member 2 pseudogene)	1	no change	no change	1.15	0.02	inactive
PARD6A (par-6 family cell polarity regulator alpha)	1	no change	no change	-0.24	0.1	inactive
CRYGB (crystallin gamma B)	1	no change	no change	0.66	1.09	inactive
RPS23 (ribosomal protein S23)	1	no change	no change	-4.19	-1.26	inactive
KIAA1143	1	no change	CA1 (caspase activation)	-1.85	5.21	active
HNRNPDL (heterogeneous nuclear ribonucleoprotein D like)	1	no change	no change	0.84	-0.84	inactive
ZNF230 (zinc finger protein 230)	1	no change	no change	-0.07	-1.12	inactive
C1orf21 (chromosome 1 open reading frame 21)	1	no change	no change	1.71	2.12	inactive
OR8H1 (olfactory receptor family 8 subfamily H member 1)	1	no change	no change	0.96	-0.35	inactive
DNAAF11 (dynein axonemal assembly factor 11)	1	no change	no change	0.34	-0.92	inactive
GRIK5 (glutamate ionotropic receptor kainate type subunit 5)	1	no change	no change	-0.88	3.54	inactive
SEC24D (SEC24 homolog D, COPII component)	1	no change	no change	1.02	-0.87	inactive
PHB1 (prohibitin 1)	1	no change	no change	-2.11	-0.57	inactive
KIAA0319	1	no change	no change	0.05	-1.07	inactive
ABHD12 (abhydrolase domain containing 12, lysophospholipase)	1	no change	no change	-1.42	1.12	inactive

The list goes on; the last 2 above are carried over.
gene	reagent	viability hit class	caspase hit class	viability robust z-score	caspase robust z-score	Outcome
KIAA0319	1	no change	no change	0.05	-1.07	inactive
ABHD12 (abhydrolase domain containing 12, lysophospholipase)	1	no change	no change	-1.42	1.12	inactive
CRTC3 (CREB regulated transcription coactivator 3)	1	no change	no change	0.73	1.6	inactive
BTN2A2 (butyrophilin subfamily 2 member A2)	1	no change	no change	-0.51	-0.94	inactive
PIK3CD	1	no change	no change	-0.34	-0.53	inactive
WNK1 (WNK lysine deficient protein kinase 1)	1	no change	no change	-0.34	0.53	inactive
WNK1 (WNK lysine deficient protein kinase 1)	2	no change	no change	0.08	-0.62	inactive
TMEM9B (TMEM9 domain family member B)	1	no change	no change	-0.84	0.48	inactive
NCOA2 (nuclear receptor coactivator 2)	1	no change	no change	0.78	0.1	inactive
MB (myoglobin)	1	no change	no change	-0.4	-0.98	inactive
OC90 (otoconin 90)	1	no change	no change	-0.48	-0.3	inactive
DHRS9 (dehydrogenase/reductase 9)	1	no change	no change	0.7	-0.36	inactive
GRAP (GRB2 related adaptor protein)	1	no change	no change	1.17	1.08	inactive
KCNA6 (potassium voltage-gated channel subfamily A member 6)	1	no change	no change	-1.76	0.26	inactive
DBNDD2 (dysbindin domain containing 2)	1	no change	no change	0.82	0.43	inactive
SLC25A20	1	no change	no change	-0.21	-0.47	inactive
ZNF697 (zinc finger protein 697)	1	no change	no change	0.98	-0.77	inactive
PRKCA (protein kinase C alpha)	1	no change	no change	0.5	2.66	inactive
SLC25A17	1	no change	no change	-0.8	-1.33	inactive
VSTM2A (V-set and transmembrane domain containing 2A)	1	no change	no change	0.04	-0.65	inactive
